# pEC50: −log10 of the molar value. Some of these results come from one statement about several compounds together.
# Target: T1, human FPR2 (Homo sapiens, UniProt P25090)
# T1 sequence (P25090 1-351): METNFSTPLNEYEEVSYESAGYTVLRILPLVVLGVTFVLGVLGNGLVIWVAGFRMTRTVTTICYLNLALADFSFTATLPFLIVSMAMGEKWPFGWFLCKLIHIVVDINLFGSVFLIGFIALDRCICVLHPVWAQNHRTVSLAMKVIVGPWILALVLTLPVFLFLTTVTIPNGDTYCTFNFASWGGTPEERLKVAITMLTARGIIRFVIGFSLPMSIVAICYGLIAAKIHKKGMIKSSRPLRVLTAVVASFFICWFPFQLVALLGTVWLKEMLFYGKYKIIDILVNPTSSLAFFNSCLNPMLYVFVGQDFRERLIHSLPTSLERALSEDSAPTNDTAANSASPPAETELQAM
# Assay: FPR2 cyclic adenosine monophosphate (cAMP) assay
# Assay type: cell-based
# Conditions: potency bins given in text; CHO cells overexpressing human FPR2; read-out: FPR2 agonist activity EC50 values in the hFPR2 Assay
# Description: FPR2 and FPR1 Cyclic Adenosine Monophosphate (cAMP) Assays. A mixture of forskolin (5 μM final for FPR2 or 10 μM final for FPR1) and IBMX (200 μM final) were added to 384-well Proxiplates (Perkin-Elmer) pre-dotted with test compounds in DMSO (1% final) at final concentrations in the range of 1.7 nM to 100 μM. Chinese Hamster Ovary cells (CHO) overexpressing human FPR1 or human FPR2 receptors were cultured in F-12 (Ham's) medium supplemented with 10% qualified FBS, 250 μg/ml zeocin and 300 μg/ml hygromycin (Life Technologies). Reactions were initiated by adding 2,000 human FPR2 cells per well or 4,000 human FPR1 cells per well in Dulbecco's PBS (with calcium and magnesium) (Life Technologies) supplemented with 0.1% BSA (Perkin-Elmer). The reaction mixtures were incubated for 30 min at room temperature. The level of intracellular cAMP was determined using the HTRF HiRange cAMP assay reagent kit (Cisbio) according to manufacturer's instruction. Solutions of cryptate conjugated anti-cAMP and d2 flurorophore-labelled cAMP were made in a supplied lysis buffer separately. Upon completion of the reaction, the cells were lysed with equal volume of the d2-cAMP solution and anti-cAMP solution. […] The potency and activity of a compound to inhibit cAMP production was then determined by fitting to a 4-parametric logistic equation from a plot of cAMP level versus compound concentrations.
row,Structure (SMILES),pEC50
1,"COc1cc(F)c([C@@H]2CN(CCC(F)(F)F)C(=O)[C@H]2NC(=O)NC2(c3ccc(Cl)c(Cl)c3)CC2)c(F)c1 [Example 98, 3-[1-(3,4-dichlorophenyl)cyclopropyl]-1-[(3S,4R)-4-(2,6-difluoro-4-methoxyphenyl)-2-oxo-1-(3,3,3-trifluoro-propyl)pyrrolidin-3-yl]urea]",> 8.00
2,"COc1cc(F)c([C@@H]2CNC(=O)[C@H]2NC(=O)NC2(c3cc(C(F)(F)F)cc(C(F)(F)F)c3)CC2)c(F)c1 [Example 38, 3-{1-[3,5-bis(trifluoromethyl)phenyl]cyclopropyl}-1-[(3S,4R)-4-(2,6-difluoro-4-methoxyphenyl)-2-oxopyrrolidin-3-yl]urea]",> 8.00
3,"COc1cc(F)c([C@@H]2CN(CC#N)C(=O)[C@H]2NC(=O)NC2(c3ccc4ccccc4n3)CC2)c(F)c1 [Example 106, 1-[(3S,4R)-1-(cyanomethyl)-4-(2,6-difluoro-4-methoxyphenyl)-2-oxopyrrolidin-3-yl]-3-[1-(quinolin-2-yl)cyclopropyl]urea]",> 8.00
4,"COc1cc(F)c([C@@H]2CN(CC(C)C)C(=O)[C@H]2NC(=O)NC2(c3cccc(C)n3)CC2)c(F)c1 [Example 108, 1-[(3S,4R)-4-(2,6-difluoro-4-methoxyphenyl)-1-(2-methylpropyI)-2-oxopyrrolidin-3-yl]-3-[1-(6-methylpyridin-2-yl)cyclopropyl]urea]",> 8.00
5,"CCCN1C[C@@H](c2c(F)cc(OC)cc2F)[C@H](NC(=O)NC2(c3ccc4ccccc4n3)CC2)C1=O [Example 95, 1-[(3S,4R)-4-(2,6-difluoro-4-methoxyphenyl)-2-oxo-1-propylpyrrolidin-3-yl]-3-[1-(quinolin-2-yl)cyclopropyl]urea]",> 8.00
6,"COc1ccc([C@@H]2CNC(=O)[C@H]2NC(=O)NC2(c3cccc(Cl)n3)CC2)c(F)c1 [Example 48, 3-[1-(6-chloropyridin-2-yl)cyclopropyl]-1-[(3S,4R)-4-(2-fluoro-4-methoxyphenyl)-2-oxopyrrolidin-3-yl]urea]",> 8.00
7,"Cc1nc(C2(NC(=O)N[C@@H]3C(=O)NC[C@H]3c3c(F)cc(Cl)cc3F)CC2)ccc1Cl [Example 100, 1-[(3S,4R)-4-(4-chloro-2,6-difluorophenyl)-2-oxopyrrolidin-3-yl]-3-[1-(5-chloro-6-methylpyridin-2-yl)cyclopropyl]urea]",> 8.00
